From the supplement of paper PMC8551327
Where a name gives a salt, the structure may show the parent alone. Some of the results follow. No stated cut-off is given here; in the data, active = 1.25 or more and inactive = the rest. Most values come without repeats; read them as rough.

Test system: Kcc2-LUC knock-in mouse primary cortical neurons (Kcc2 promoter reporter)
Test: Kcc2 promoter-driven luciferase activity relative to vehicle control (fold of vehicle (ratio)); higher = stronger Kcc2 promoter activation (Kcc2 expression enhancer)
Settings: 100 nM; 48 h

| Structure (SMILES) | Kcc2 promoter-driven luciferase activity |
| --- | --- |
| CCCCCC/C=C\CCCCCCCCCc1cccc(OC)c1O [2-[(Z)-heptadec-10-enyl]-6-methoxyphenol] | inactive: 0.69 |
| O=S(=O)(O)c1cc(N=Nc2cc(S(=O)(=O)O)c3ccccc3c2O)ccc1/C=C/c1ccc(N=Nc2cc(S(=O)(=O)O)c3ccccc3c2O)cc1S(=O)(=O)O | inactive: 1.01 |
| CCCCCC(/C=C/[C@@H]1CC(=O)C[C@H]1O[Si](C)(C)C(C)(C)C)OCOCCOC (stereo partly specified) [Cyclopentanone,1-dimethylethyl)silyl]oxy]-] | inactive: 0.644 |
| COc1ccc(CCN(C)CCCC(C#N)(c2ccc(OC)c(OC)c2)C(C)C)cc1OC (stereo unspecified) [Verapamil Hydrochloride] | inactive: 1.11 |
| CC1C(Oc2c(-c3ccc(O)c(O)c3)oc3c(O)cc(O)cc3c2=O)OC(O)C(O)C1O (stereo unspecified) [4H-1-Benzopyran-4-one,4-dihydroxyphenyl)-6,8-dihdroxy-] | inactive: 0.87 |
| C=C1C(=O)C23CC[C@@H]4C(C)(C(=O)OC)CCCC4(C)[C@@H]2CCC1(O)C3 (stereo partly specified) | inactive: 0.963 |
